Results on four molecules are retold here after paper PMC12382473, “Retinoid X receptor γ interacts with peroxisome proliferator-activated receptor-γ to promote browning during adipose tissue differentiation” (Adipocyte, 2025).

Sequences of proteins named here, by UniProt entry; tags and fusion partners are left off.
UniProt Q9Y2H1: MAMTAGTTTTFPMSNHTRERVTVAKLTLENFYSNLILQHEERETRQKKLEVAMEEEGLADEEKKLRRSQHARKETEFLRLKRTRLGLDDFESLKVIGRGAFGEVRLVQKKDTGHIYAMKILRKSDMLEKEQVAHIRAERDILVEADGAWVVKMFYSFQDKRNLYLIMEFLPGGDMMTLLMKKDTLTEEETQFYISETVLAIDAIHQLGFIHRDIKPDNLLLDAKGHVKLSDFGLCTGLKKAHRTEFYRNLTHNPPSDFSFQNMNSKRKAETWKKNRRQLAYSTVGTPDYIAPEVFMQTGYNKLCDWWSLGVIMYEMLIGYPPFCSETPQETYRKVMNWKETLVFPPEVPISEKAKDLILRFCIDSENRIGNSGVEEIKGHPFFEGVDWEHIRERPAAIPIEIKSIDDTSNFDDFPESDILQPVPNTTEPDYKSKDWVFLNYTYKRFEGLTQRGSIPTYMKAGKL
UniProt Q15208: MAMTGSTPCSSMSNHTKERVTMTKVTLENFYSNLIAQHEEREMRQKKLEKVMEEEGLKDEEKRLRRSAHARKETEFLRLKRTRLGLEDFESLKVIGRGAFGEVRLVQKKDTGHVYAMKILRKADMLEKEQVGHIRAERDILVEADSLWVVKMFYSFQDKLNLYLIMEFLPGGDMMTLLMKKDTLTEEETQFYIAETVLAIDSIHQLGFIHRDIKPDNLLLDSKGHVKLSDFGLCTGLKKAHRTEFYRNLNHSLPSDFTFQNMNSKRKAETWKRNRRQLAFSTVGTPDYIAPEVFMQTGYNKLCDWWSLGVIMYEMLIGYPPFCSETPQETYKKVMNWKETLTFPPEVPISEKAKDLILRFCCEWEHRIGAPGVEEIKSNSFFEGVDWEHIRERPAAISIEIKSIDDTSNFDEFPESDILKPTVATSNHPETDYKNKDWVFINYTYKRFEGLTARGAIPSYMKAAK

This assay deals with T1, Flag-PPARγ, transfected in HEK293 cells (UniProt P37231 1-505).
T1 sequence (looked up): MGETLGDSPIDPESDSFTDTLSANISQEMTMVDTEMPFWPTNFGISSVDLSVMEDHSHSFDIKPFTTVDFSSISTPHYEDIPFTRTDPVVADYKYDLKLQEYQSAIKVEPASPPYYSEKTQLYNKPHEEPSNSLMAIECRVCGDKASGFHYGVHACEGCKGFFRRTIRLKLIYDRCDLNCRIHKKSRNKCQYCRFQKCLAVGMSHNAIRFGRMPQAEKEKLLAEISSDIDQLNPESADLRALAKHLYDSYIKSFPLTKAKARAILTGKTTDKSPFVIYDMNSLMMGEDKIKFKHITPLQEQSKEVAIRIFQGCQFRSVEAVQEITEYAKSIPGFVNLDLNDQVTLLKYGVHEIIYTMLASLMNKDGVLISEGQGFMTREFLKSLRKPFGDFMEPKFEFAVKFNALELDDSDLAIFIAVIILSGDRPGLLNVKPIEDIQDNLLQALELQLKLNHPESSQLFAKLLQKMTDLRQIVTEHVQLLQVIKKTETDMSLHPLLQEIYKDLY
Description: co-IP; HEK293 cells (methods: HEK-293T) co-transfected with Flag- and Myc-tagged proteins; lysed in RIPA buffer 48 h after transfection; anti-Flag beads overnight at 4°C; Western blot with anti-Flag and anti-Myc. For orientation: In western blotting, separated proteins are transferred to a membrane and probed.

No constants are given. Whether binding was seen depends on the method and setting. Binding seen in cells or lysates may run through a third protein. Some entries that bind do so weakly or less than the wild type. Where a sequence is shown, tags or fusion partners need not be part of it.

Turning to “Myc-STK38L, transfected in HEK293 cells (from UniProt Q9Y2H1 1-464)”, the binding result is recorded as “binds”.

For “Myc-STK38, transfected in HEK293 cells (from UniProt Q15208 1-465)”, the binding result is given as “binds”.

B1: Myc-HNF4α, transfected in HEK293 cells (protein, UniProt P41235 1-474)
chain: MRLSKTLVDMDMADYSAALDPAYTTLEFENVQVLTMGNDTSPSEGTNLNAPNSLGVSALCAICGDRATGKHYGASSCDGCKGFFRRSVRKNHMYSCRFSRQCVVDKDKRNQCRYCRLKKCFRAGMKKEAVQNERDRISTRRSSYEDSSLPSINALLQAEVLSRQITSPVSGINGDIRAKKIASIADVCESMKEQLLVLVEWAKYIPAFCELPLDDQVALLRAHAGEHLLLGATKRSMVFKDVLLLGNDYIVPRHCPELAEMSRVSIRILDELVLPFQELQIDDNEYAYLKAIIFFDPDAKGLSDPGKIKRLRSQVQVSLEDYINDRQYDSRGRFGELLLLLPTLQSITWQMIEQIQFIKLFGMAKIDNLLQEMLLGGSPSDAPHAHHPLHPHLMQEHMGTNVIVANTMPTHLSNGQMCEWPRPRGQAATPETPQPSPPGGSGSEPYKLLPGAVATIVKPLSAIPQPTITKQEVI
Turning to B1, the binding entry is given as “no binding”.

B2: Myc-RXRγ (retinoid X receptor γ), transfected in HEK293 cells (natural protein, UniProt P48443 1-463, looked up)
chain: MYGNYSHFMKFPAGYGGSPGHTGSTSMSPSAALSTGKPMDSHPSYTDTPVSAPRTLSAVGTPLNALGSPYRVITSAMGPPSGALAAPPGINLVAPPSSQLNVVNSVSSSEDIKPLPGLPGIGNMNYPSTSPGSLVKHICAICGDRSSGKHYGVYSCEGCKGFFKRTIRKDLIYTCRDNKDCLIDKRQRNRCQYCRYQKCLVMGMKREAVQEERQRSRERAESEAECATSGHEDMPVERILEAELAVEPKTESYGDMNMENSTNDPVTNICHAADKQLFTLVEWAKRIPHFSDLTLEDQVILLRAGWNELLIASFSHRSVSVQDGILLATGLHVHRSSAHSAGVGSIFDRVLTELVSKMKDMQMDKSELGCLRAIVLFNPDAKGLSNPSEVETLREKVYATLEAYTKQKYPEQPGRFAKLLLRLPALRSIGLKCLEHLFFFKLIGDTPIDTFLMEMLETPLQIT
As for B2, the binding entry is given as “binds”.
